Measurements taken from PubChem BioAssay AID2551 (National Center for Advancing Translational Sciences (NCATS), 2010).
The whole screen tested about 310,000 compounds, of which about 17,000 (5.5%) were called active. The inconclusive results got no clear call from the source; some entries with a clear call stand among them for comparison. Calls come from the whole dose curve; as a rule, active = well fitted inhibition curve with a large enough effect; inconclusive = small, poorly fitted or top-dose-only effect, or effect the other way; inactive = no such curve, though single readings can be large or run the other way. Where the call is inconclusive, the potency comes from a doubtful curve fit.

Sequences of proteins named here, by UniProt entry; tags and fusion partners are left off. A change or cut given only in a name is not applied to a line headed by its entry.
UniProt P51450: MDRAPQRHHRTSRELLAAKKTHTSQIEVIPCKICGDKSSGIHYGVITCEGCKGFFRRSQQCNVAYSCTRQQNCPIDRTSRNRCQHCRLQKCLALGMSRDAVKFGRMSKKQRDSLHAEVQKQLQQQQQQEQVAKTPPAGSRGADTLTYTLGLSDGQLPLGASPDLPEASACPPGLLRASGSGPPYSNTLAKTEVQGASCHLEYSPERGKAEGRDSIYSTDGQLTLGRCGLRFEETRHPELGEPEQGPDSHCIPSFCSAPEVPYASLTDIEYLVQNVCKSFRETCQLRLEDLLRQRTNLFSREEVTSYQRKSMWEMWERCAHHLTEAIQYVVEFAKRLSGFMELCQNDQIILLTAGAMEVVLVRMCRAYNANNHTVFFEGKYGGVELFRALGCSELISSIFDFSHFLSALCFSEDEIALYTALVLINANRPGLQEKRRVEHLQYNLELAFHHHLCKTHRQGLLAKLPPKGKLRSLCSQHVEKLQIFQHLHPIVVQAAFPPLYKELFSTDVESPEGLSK

Target: Nuclear receptor ROR-gamma (Mus musculus) (UniProt P51450)
Test: qHTS for inhibitors of ROR gamma transcriptional activity; note: nearly all actives have a fitted effect of over 60% in size
Settings: Drosophila S2 Gal4-RORgamma UAS-luciferase reporter, 20 h; activity change, negative = inhibition: at 53.6 µM (top of the series)
Outline: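 In this cell-based reporter format, copper sulfate (700 uM final) drives Gal4–ROR gamma fusion expression from a metallothionein promoter in Drosophila Schneider cells; compounds preincubated 1 hr, reporter read after 20 hr at ambient temperature.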
% is set by controls: 0 for no effect and ±100 for the full control effect; potency is the fitted concentration of half-maximal effect.

Q: For `O=S(=O)(NC1=NCCCCCC1)c1cccs1`, which Potency is on record?
A: inconclusive: 4.47 µM [inhibitor, single point]

Q: `CCCC(=O)Nc1sc2c(c1C(=O)Nc1ccccn1)CCCC2` was tested. Which Potency did it give?
A: inactive

Q: With `COc1ccc(-c2noc(C3CCCN(C(=O)c4ccc(F)cc4)C3)n2)cc1` (centres undefined) as the compound, how does the Potency read?
A: inconclusive: 22.4 µM [activator, single point]

Q: With `COc1ccc(-c2cc3nc(C)n(N)c(=O)c3s2)cc1` as the compound, how does the Potency read?
A: active: 1.78 µM

Q: With `O=C(NC(=S)Nc1cccc(-c2ccc(CO)o2)c1)c1cccs1` as the compound, how does the Potency read?
A: inconclusive: 15.8 µM [inhibitor, single point]

Q: For `C=C(NC(=O)C(=C)NC(=O)c1csc(C2=NC3c4csc(n4)C4NC(=O)c5csc(n5)C(C(C)(O)C(C)O)NC(=O)C5CSC(=N5)C(=CC)NC(=O)C(C(C)O)NC(=O)c5csc(n5)C3(CC2)NC(=O)C(C)NC(=O)C(=C)NC(=O)C(C)NC(=O)C(C(C)CC)NC2C=Cc3c(C(C)O)cc(nc3C2O)C(=O)OC4C)n1)C(N)=O` (centres undefined), which Potency is on record?
A: inconclusive: 31.6 µM [inhibitor, single point]

Q: Which Potency does the source give for `O=C(c1ccc(Cl)cc1)C(Cn1cncn1)C(Sc1ccccc1)c1ccccc1` (centres undefined) here?
A: inconclusive: 35.5 µM [inhibitor, single point]

Q: For `O=C(O)c1ccc(NC(=S)NC(=O)c2cccnc2)cc1`, which Potency is on record?
A: inconclusive: 10 µM [inhibitor, partial curve, poor fit]

Q: For `CCCn1nnnc1NC(=O)COc1ccc(Br)cc1`, which Potency is on record?
A: active: 2.51 µM

Q: With `COc1cccc(OCc2cc(C(=O)N(C)CCOc3ccc(C)cc3)no2)c1` as the compound, how does the Potency read?
A: inconclusive: 3.55 µM [activator, full curve]

Q: With `CCOC(=O)C(C)On1c(-c2ccc(Cl)cc2)nc2ccc([N+](=O)[O-])cc21` (centres undefined) as the compound, how does the Potency read?
A: inconclusive: 0.0891 µM [activator, full curve, poor fit]

Q: `CCC(=O)OCC(=O)C1(OC(=O)CC)C(C)CC2C3C(Cl)CC4=CC(=O)C=C[C@@]4(C)C3C(O)C[C@@]21C` (some centres undefined) was tested. Which Potency did it give?
A: active: 12.6 µM

Q: With `COc1ccc(CCn2c(C)cc(C(=O)CCl)c2C)cc1OC` as the compound, how does the Potency read?
A: active: 11.2 µM

Q: For `CCCN(CCC)S(=O)(=O)c1cccc(C(=O)Nc2ccc3c(c2)OCO3)c1`, which Potency is on record?
A: inconclusive: 10 µM [activator, partial curve]

Q: With `C=CCn1c(SCC(=O)NCc2ccccc2)nnc1-c1cc(Br)ccc1O` as the compound, how does the Potency read?
A: inconclusive: 35.5 µM [inhibitor, single point]

Q: `c1ccc2[nH]c(CSc3nnc(-c4ccncc4)o3)nc2c1` was tested. Which Potency did it give?
A: inconclusive: 1 µM [inhibitor, single point]

Q: `COc1ccc(C)cc1NC(=O)CCN1CCN(C/C=C/c2ccccc2)CC1` was tested. Which activity change, negative = inhibition did it give?
A: inactive: -4.07% [at 1.91 µM]

Q: `CS(=O)(=O)c1ccc(C(=O)OC2CCOC2=O)cc1[N+](=O)[O-]` (centres undefined) was tested. Which Potency did it give?
A: active: 4.47 µM

Q: Which Potency does the source give for `Cc1cccc(-n2nc3c(c2NC(=O)c2cc4ccccc4o2)CS(=O)(=O)C3)c1` here?
A: inconclusive: 14.1 µM [activator, single point]

Q: For `O=C(CCCSc1ccc(Cl)cc1)Nc1ccccc1O`, which Potency is on record?
A: inconclusive: 0.0045 µM [inhibitor, full curve, poor fit]

Q: Which Potency does the source give for `CCCCN1C(=O)c2ccc(C(=O)NC3=NCCS3)cc2C1=O` here?
A: inconclusive: 3.55 µM [activator, single point]

Q: With `CC1=CCC2C(=O)N(c3ccc(C)c(Br)c3)C(=O)C2C1` (centres undefined) as the compound, how does the Potency read?
A: inconclusive: 6.31 µM [activator, single point]

Q: For `CN1CCN(c2ccccc2NC(=O)C(Cc2ccccc2)n2cccc2)CC1` (centres undefined), which Potency is on record?
A: inactive

Q: Which Potency does the source give for `O=C(c1cc2cc([N+](=O)[O-])ccc2oc1=O)N1CCOCC1` here?
A: active: 5.01 µM

Q: For `CC(C)(C)c1ccc(C(=O)N2CCC(=O)N(C(CO)Cc3ccccc3)CC2)cc1` (centres undefined), which Potency is on record?
A: inconclusive: 25.1 µM [activator, single point]

Q: With `O=C(NCc1ccc(F)cc1)c1ccc(CS(=O)Cc2ccccc2Cl)o1` (centres undefined) as the compound, how does the Potency read?
A: inconclusive: 8.91 µM [activator, partial curve]

Q: `CCOC(=O)c1c(NC(=O)C(C)Sc2cn(C)c3ccccc23)sc2c1CCC2` (centres undefined) was tested. Which Potency did it give?
A: inconclusive: 35.5 µM [activator, single point]

Q: `N/C(=N\OC(=O)c1ccoc1)c1ccc(Br)cc1` was tested. Which Potency did it give?
A: inconclusive: 2.51 µM [activator, partial curve]

Q: How did the Potency turn out when `Cc1ccc(/C(N)=N/OC(=O)c2ccc(Cl)cc2Cl)cc1` was run?
A: inconclusive: 12.6 µM [inhibitor, single point]

Q: How did the Potency turn out when `Cc1cc(N2CCOCC2)n2ncc(-c3ccccc3)c2n1` was run?
A: inconclusive: 12.6 µM [inhibitor, single point]

Q: `COc1cc(/C=C2/SC(=S)N(Cc3ccccc3)C2=O)cc(Cl)c1O` was tested. Which Potency did it give?
A: inconclusive: 17.8 µM [activator, single point]

Q: How did the Potency turn out when `Cn1c(SCC(=O)OC2CCCCC2)nnc1-c1ccc2c(c1)OCO2` was run?
A: inactive

Q: For `COc1cccc(-n2cc(C(=O)NC(C)C)c3ccccc3c2=O)c1`, which Potency is on record?
A: inactive

Q: Which Potency does the source give for `Cc1ccc(NC(=O)COC(=O)c2ccc3c(c2)OCCO3)cc1S(=O)(=O)N1CCOCC1` here?
A: inconclusive: 35.5 µM [activator, single point]

Q: With `CC1SC(=S)N(c2ccc(N(C)C)cc2)C1=O` (centres undefined) as the compound, how does the Potency read?
A: active: 11.2 µM

Q: For `COc1ccc(N2CCN(C3CCCN(S(=O)(=O)c4ccc(C)cc4C)C3)CC2)cc1` (centres undefined), which Potency is on record?
A: inactive

Q: Which Potency does the source give for `COCc1cc(=O)n2[nH]cc(-c3ccsc3)c2n1` here?
A: active: 15.8 µM

Q: `CCOC(=O)/C(=C/c1c[nH]c2ccccc12)NC(C)=O` was tested. Which Potency did it give?
A: inactive

Q: Which Potency does the source give for `Cc1cc2[nH]ncc2cc1NC(=S)NC(=O)c1ccccc1` here?
A: inactive

Q: For `NNC(=S)NCc1ccco1`, which Potency is on record?
A: active: 7.08 µM

Q: With `C=C1CCN([C@H](C(=O)NCc2ccc(OC)cc2)C(C)C)S(=O)(=O)c2ccccc21` as the compound, how does the Potency read?
A: inconclusive: 20 µM [activator, single point]

Q: `C=C(C)CNC(=S)N/N=C(\C)c1ccc(Cl)s1` was tested. Which Potency did it give?
A: active: 0.891 µM

Q: `Cc1ccc(S(=O)(=O)N2CCN(c3ccc([N+](=O)[O-])c(Sc4nncn4C)c3)CC2)cc1` was tested. Which Potency did it give?
A: inconclusive: 14.1 µM [activator, partial curve]

Q: With `C/C(=C\C(=O)c1ccccc1)Nc1ccc(O)cc1` as the compound, how does the Potency read?
A: inconclusive: 3.98 µM [inhibitor, partial curve, poor fit]
